# In the supplement of paper PMC8104966:
# The list shows a part of the results. Repeats in this data set agree poorly, so a single value says little.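 U2OS cells carrying ACE2 were mixed with U2OS cells carrying full-length spike, and fusion was scored by imaging as the share of nuclei showing both cell types' fluorescent markers. A compound counts as an inhibitory hit when it is non-toxic and its fusion z-score falls below -3, meaning more than three standard deviations below the plate's DMSO wells.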
# System: U2OS ACE2 x SARS-CoV-2 spike co-culture
# Assay: cell-cell fusion (fraction fused) z-score vs plate DMSO control; higher = more fusion
# Conditions: 30 µM; 5 h; toxicity class: non-toxic, passed QC
row,Compound,cell-cell fusion (z-score)
1,CCN1CCCC1CNC(=O)c1cc(S(=O)(=O)CC)c(N)cc1OC (stereo not drawn) [Amisulpride],inactive: 0.789
2,CC(=O)CC(c1ccccc1)c1c([O-])c2ccccc2oc1=O.[Na+] (stereo not drawn) [Warfarin sodium],inactive: 3.25
3,N[C@H](C(=O)O)[C@H](Cc1ccccc1)C(=O)O [L-Beta-threo-benzyl-aspartate],active: -3.43
4,Nc1ccc(S(=O)(=O)Nc2nccs2)cc1 [Sulfathiazole],inactive: 3
5,O=C1C2CC=CCC2C(=O)N1SC(Cl)(Cl)Cl (stereo not drawn),inactive: 0.0224
6,C=C1C[C@@H]2[C@H](CC[C@]3(C)C(=O)CC[C@@H]23)[C@@]2(C)C=CC(=O)C=C12 [Exemestane],inactive: 2.12
7,C[C@H](CCC(=O)O)[C@H]1CCC2C3C(CC[C@@]21C)[C@@]1(C)CC[C@@H](O)C[C@H]1C[C@@H]3O (stereo partly drawn),inactive: 1
8,O=c1c(-c2ccc(O)cc2)coc2cc(O)cc(O)c12 [Genistein],inactive: 1.32
9,CCc1cc(C(N)=S)ccn1 [Ethinamide],inactive: 2.57
10,C[C@]12CCC3c4ccc(OC(=O)c5ccccc5)cc4CCC3C1CCC2=O (stereo partly drawn),inactive: 2.79
11,CC1(C)S[C@@H]2[C@H](NC(=O)[C@H](N)c3ccccc3)C(=O)N2[C@H]1C(=O)[O-].[Na+],inactive: 1.38
12,CS(=O)(=O)c1ccc(C2=C(c3ccccc3)C(=O)OC2)cc1,inactive: 1.9
13,C[C@H]1COc2c(N3CCN(C)CC3)c(F)cc3c(=O)c(C(=O)O)cn1c23.C[C@H]1COc2c(N3CCN(C)CC3)c(F)cc3c(=O)c(C(=O)O)cn1c23.O [Levofloxacin Hemihydrate],inactive: 3.61
14,Cc1cccc(-c2nc(C(C)(C)C)[nH]c2-c2ccc3nccnc3c2)n1,inactive: 1.66
15,C[C@@H]1CC2C3CCC4=CC(=O)C=C[C@]4(C)[C@@]3(Cl)[C@@H](O)C[C@]2(C)[C@@]1(OC(=O)c1ccco1)C(=O)CCl (stereo partly drawn),inactive: 3.91
16,CCn1cc(C(=O)O)c(=O)c2cc(F)c(N3CCNCC3)cc21,inactive: -0.577
17,Cn1cnc(-c2cc3nccc(Oc4ccc(NC(=S)NC(=O)Cc5ccccc5)cc4F)c3s2)c1,inactive: 0.997
18,Nc1nc(CC(=O)Nc2ccc(CCNC[C@H](O)c3ccccc3)cc2)cs1 [Mirabegron],inactive: 0.262
19,Cc1cccc(C)c1NC(=O)C1CCCCN1C.Cl (stereo not drawn),inactive: 1.72
20,CC(C)NCC(O)COc1ccc(CCOCC2CC2)cc1.Cl (stereo not drawn) [Betaxolol hydrochloride],inactive: -0.409
21,CC(C)NCC(O)COc1ccc(CCOCC2CC2)cc1.Cl (stereo not drawn),inactive: 3.25
22,CC(C)c1ccc2c(c1)c(SC(C)(C)C)c(CC(C)(C)C(=O)[O-])n2Cc1ccc(Cl)cc1.[Na+],inactive: 2.86
23,C/C(=C(/CCOP(=O)(O)O)SC(=O)c1ccccc1)N(C=O)Cc1cnc(C)nc1N.NCCO.NCCO,inactive: 2.86

# Copied from the results shown (2 entries):
row,Compound,cell-cell fusion (z-score)
8,O=c1c(-c2ccc(O)cc2)coc2cc(O)cc(O)c12 [Genistein],inactive: 1.32
9,CCc1cc(C(N)=S)ccn1 [Ethinamide],inactive: 2.57

# (further entries)

row,Compound,cell-cell fusion (z-score)
1,CCOc1ccc(Cc2cc([C@]34OC[C@](CO)(O3)[C@@H](O)[C@H](O)[C@H]4O)ccc2Cl)cc1 [Ertugliflozin],inactive: 0.627
2,C=C(c1ccc(C(=O)O)cc1)c1cc2c(cc1C)C(C)(C)CCC2(C)C [Bexarotene],inactive: 0.123
3,Cl.NCCc1ccc(O)cc1 [4-Hydroxyphenethylamine hydrochloride],inactive: -0.0809
4,NC(=O)NS(=O)(=O)c1ccc(N)cc1,inactive: 2.03
5,CCC(=O)O[C@]1(C(=O)SCF)[C@H](C)C[C@H]2[C@@H]3C[C@H](F)C4=CC(=O)C=C[C@]4(C)[C@@]3(F)[C@@H](O)C[C@@]21C [Fluticasone propionate],inactive: 4.03
6,CN(C)CC/C=C1/c2ccccc2Sc2cc(Cl)ccc21.Cl [Chlorprothixene hydrochloride],inactive: 0.216
7,Cc1c(Cn2c(C)nc3c(C(=O)O)cc(N4CCOCC4)cc32)cccc1C(F)(F)F,inactive: -2.15
8,C1COC(NC(C2CC2)C2CC2)=N1 [Rilmenidine hemifumarate],inactive: 1.06
9,Cl.OC(CCCN1CCCCC1)(c1ccccc1)c1ccccc1 [Diphenidol hydrochloride],inactive: 3.61
10,CNC(=O)c1cc2c(cn1)[nH]c1ccccc12 [N-Methyl-beta-carboline-3-carboxamide],inactive: 2.94
11,Cc1ccc(C)c(OCCCC(C)(C)C(=O)O)c1 [Gemfibrozil],inactive: 2.72
12,CC(C)(C)C(O)/C=C/c1ccc2c(c1)OCO2 (stereo not drawn) [Stiripentol],inactive: 1.89
13,COc1ccc(-c2ccc3cc(C(=O)O)ccc3c2)cc1C12CC3CC(CC(C3)C1)C2,inactive: 0.325
14,CC(C)[C@@H]1CC[C@@H](C)C[C@H]1O,inactive: 2.32
15,CC(C)[C@@H]1CC[C@@H](C)C[C@H]1O [L-Menthol],inactive: 1.1
16,Clc1ccc(COC(Cn2ccnc2)c2ccc(Cl)cc2Cl)cc1.O=[N+]([O-])O (stereo not drawn) [Econazole nitrate],active: -3.24
17,COC(=O)N[C@H](C(=O)N1CCC[C@H]1c1nc2cc(F)c([C@H]3CC[C@H](c4cc5[nH]c([C@@H]6CCCN6C(=O)[C@@H](NC(=O)OC)[C@@H](C)OC)nc5cc4F)N3c3cc(F)c(N4CCC(c5ccc(F)cc5)CC4)c(F)c3)cc2[nH]1)[C@@H](C)OC,inactive: 2.68
18,COCCCOc1cc(C[C@@H](C[C@H](N)[C@@H](O)C[C@H](C(=O)NCC(C)(C)C(N)=O)C(C)C)C(C)C)ccc1OC.O=C(O)/C=C/C(=O)O,inactive: 1.01
19,COc1cc(NS(=O)(=O)c2ccc(N)cc2)nc(OC)n1,inactive: 2.24
20,OC[C@H](O)C(O)[C@@H](O)CO,inactive: 2.48
21,C=C1C(=O)O[C@@H]2C[C@@]3(C)CCC[C@H](C)C3=C[C@H]12,inactive: -0.00999
22,C[C@H](Nc1ncnc2[nH]cnc12)c1cc2cccc(Cl)c2c(=O)n1-c1ccccc1,inactive: -1.04
23,CN[C@@H]1C(OC2[C@H](O[C@H]3[C@H](O)[C@@H](O)[C@H](NC(=N)N)[C@@H](O)[C@@H]3NC(=N)N)OC(C)[C@]2(O)CO)OC(CO)C(O)C1O (stereo partly drawn),inactive: 2.84

row,Compound,cell-cell fusion (z-score)
1,[O-][n+]1cccc(CO)c1,inactive: 3.47
2,C=C1C(=O)[C@]23[C@H](O)[C@H]1CC[C@H]2[C@@]12CO[C@@]3(O)[C@H](O)[C@@H]1C(C)(C)CC[C@@H]2O,inactive: 2.81
3,CC(C)=CC1C(C(=O)O)C1(C)C (stereo not drawn),inactive: 1.48
4,CCCCC(=O)O[C@]1(C(=O)CO)[C@@H](C)CC2C3CCC4=CC(=O)C=C[C@]4(C)[C@@]3(F)C(O)C[C@@]21C (stereo partly drawn),inactive: 0.631
5,CC(=O)O[C@H]1C[C@@H](OC(C)=O)C(C)(C)C2C[C@@H](OC(C)=O)[C@]3(C)C(CC[C@@]4(C)[C@H](c5ccoc5)C(=O)[C@H]5O[C@]543)[C@]21C (stereo partly drawn),inactive: 3.37
6,COC(=O)C1=C(C)NC(C)=C(C(=O)OCC(C)C)C1c1ccccc1[N+](=O)[O-] (stereo not drawn),inactive: 3.51
7,CC(=O)SCC[N+](C)(C)C.[Cl-] [Acetylthiocholine chloride],inactive: 2.56
8,C[C@H](N[C@@H](CCc1ccccc1)C(=O)O)C(=O)N1CCC[C@H]1C(=O)O.O.O [Enalaprilat Dihydrate],inactive: 1.1
9,O=C(/C=C/C(=O)Oc1ccccc1C(=O)O)Oc1ccccc1C(=O)O,inactive: 2.46
10,COc1ccc2cccc(CCNC(C)=O)c2c1 [Agomelatine],inactive: 1.72
11,COc1cc(CNC(=O)CCCCCCC(C)C)ccc1O [Dihydrocapsaicin],inactive: 2.5
12,Clc1cnc(Oc2ccc(Oc3ncc(Cl)cc3Cl)cc2)c(Cl)c1,inactive: 0.215
13,"Cc1c(C(=O)Nc2ccc(N3C[C@@H](C)O[C@@H](C)C3)nc2)cccc1-c1ccc(OC(F)(F)F)cc1 [LDE225 (NVP-LDE225, Erismodegib)]",inactive: 1.14
14,CC[C@@]1(O)C(=O)OCc2c1cc1n(c2=O)Cc2cc3ccccc3nc2-1,inactive: 1.96
15,CC[C@@]1(O)C(=O)OCc2c1cc1n(c2=O)Cc2cc3ccccc3nc2-1 [(S)-(+)-Camptothecin],inactive: -0.00556
16,C=CC(C1=CC(=O)C(OC)=CC1=O)c1ccc(OC)cc1 (stereo not drawn),inactive: 2.34
17,Cc1cc(/C=C/c2ccc3cc(N(C)C)ccc3[n+]2C)c(C)n1-c1ccccc1.O=C([O-])c1cc2ccccc2c(Cc2c(O)c(C(=O)O)cc3ccccc23)c1O,inactive: 3.32
18,COC(=O)[C@H]1[C@H]2C[C@@H]3c4[nH]c5cc(OC)ccc5c4CCN3C[C@H]2C[C@@H](OC(=O)c2cc(OC)c(OC)c(OC)c2)[C@@H]1OC,inactive: 2.76
19,CC(C)C(=O)Nc1ccc([N+](=O)[O-])c(C(F)(F)F)c1,inactive: 2.79
20,CC(C)C(=O)Nc1ccc([N+](=O)[O-])c(C(F)(F)F)c1 [Flutamide],inactive: 1.83
21,CCc1nc(N)nc(N)c1-c1ccc(Cl)cc1,inactive: 1.76
22,O=C(N/N=C/c1ccc([N+](=O)[O-])o1)c1cc([N+](=O)[O-])cc([N+](=O)[O-])c1O,inactive: 2.34

# Reformatted with bars between the fields: entries from further up
row | Compound | cell-cell fusion (z-score)
19 | CC(C)C(=O)Nc1ccc([N+](=O)[O-])c(C(F)(F)F)c1 | inactive: 2.79
20 | CC(C)C(=O)Nc1ccc([N+](=O)[O-])c(C(F)(F)F)c1 [Flutamide] | inactive: 1.83
